Measurements reported in patent US20200057047A1.
Results are given in words; binding and its absence hold for the method and conditions named. For some of these results: In cells and extracts the contact can be indirect. Some entries that bind do so weakly or less than the wild type. Values belong to the substance of their own block, whether it stands above or below them.

Sequences of proteins named here, by UniProt entry; tags and fusion partners are left off. A change or cut given only in a name is not applied to a line headed by its entry. A line that says so, or that is headed by a name, gives the form on record, which may keep a tag or linker. Residues count along the entry.
UniProt P30561, residues 10-848: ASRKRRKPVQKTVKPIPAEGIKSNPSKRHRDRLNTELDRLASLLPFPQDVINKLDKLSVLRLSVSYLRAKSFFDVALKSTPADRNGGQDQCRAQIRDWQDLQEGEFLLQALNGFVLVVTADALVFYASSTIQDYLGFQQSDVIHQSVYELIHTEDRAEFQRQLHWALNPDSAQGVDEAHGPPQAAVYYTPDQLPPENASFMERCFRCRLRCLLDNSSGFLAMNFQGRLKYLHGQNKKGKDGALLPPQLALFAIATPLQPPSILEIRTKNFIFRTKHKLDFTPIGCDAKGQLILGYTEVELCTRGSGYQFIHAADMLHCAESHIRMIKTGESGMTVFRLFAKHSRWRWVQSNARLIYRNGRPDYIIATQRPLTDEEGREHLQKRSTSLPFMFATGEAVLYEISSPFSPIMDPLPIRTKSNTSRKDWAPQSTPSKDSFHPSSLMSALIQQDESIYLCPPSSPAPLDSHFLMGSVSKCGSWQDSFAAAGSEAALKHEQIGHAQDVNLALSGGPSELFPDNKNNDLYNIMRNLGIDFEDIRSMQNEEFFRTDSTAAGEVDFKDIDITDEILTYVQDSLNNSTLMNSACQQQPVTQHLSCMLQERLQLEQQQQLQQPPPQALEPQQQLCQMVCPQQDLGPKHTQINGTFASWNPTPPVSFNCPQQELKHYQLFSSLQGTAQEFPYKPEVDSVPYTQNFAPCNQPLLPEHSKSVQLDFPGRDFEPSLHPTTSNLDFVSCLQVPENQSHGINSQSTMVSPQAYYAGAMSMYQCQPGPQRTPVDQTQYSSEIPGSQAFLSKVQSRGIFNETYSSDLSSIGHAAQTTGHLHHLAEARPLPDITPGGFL
RORγt, endogenous, murine T cells (P51450, form named): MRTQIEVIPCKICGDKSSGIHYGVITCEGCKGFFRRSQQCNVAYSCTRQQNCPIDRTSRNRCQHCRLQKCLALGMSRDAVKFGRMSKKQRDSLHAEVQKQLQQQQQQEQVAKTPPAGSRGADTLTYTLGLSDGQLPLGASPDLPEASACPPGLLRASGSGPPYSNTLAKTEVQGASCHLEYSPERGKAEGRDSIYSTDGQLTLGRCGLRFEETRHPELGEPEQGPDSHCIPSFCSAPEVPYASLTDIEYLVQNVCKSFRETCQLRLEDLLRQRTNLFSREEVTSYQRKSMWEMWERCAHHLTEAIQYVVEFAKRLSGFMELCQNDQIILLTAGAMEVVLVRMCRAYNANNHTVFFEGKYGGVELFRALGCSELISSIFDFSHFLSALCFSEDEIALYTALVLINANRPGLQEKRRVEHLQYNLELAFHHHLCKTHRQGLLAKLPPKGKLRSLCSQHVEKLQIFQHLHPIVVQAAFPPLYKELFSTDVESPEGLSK
UniProt P46940: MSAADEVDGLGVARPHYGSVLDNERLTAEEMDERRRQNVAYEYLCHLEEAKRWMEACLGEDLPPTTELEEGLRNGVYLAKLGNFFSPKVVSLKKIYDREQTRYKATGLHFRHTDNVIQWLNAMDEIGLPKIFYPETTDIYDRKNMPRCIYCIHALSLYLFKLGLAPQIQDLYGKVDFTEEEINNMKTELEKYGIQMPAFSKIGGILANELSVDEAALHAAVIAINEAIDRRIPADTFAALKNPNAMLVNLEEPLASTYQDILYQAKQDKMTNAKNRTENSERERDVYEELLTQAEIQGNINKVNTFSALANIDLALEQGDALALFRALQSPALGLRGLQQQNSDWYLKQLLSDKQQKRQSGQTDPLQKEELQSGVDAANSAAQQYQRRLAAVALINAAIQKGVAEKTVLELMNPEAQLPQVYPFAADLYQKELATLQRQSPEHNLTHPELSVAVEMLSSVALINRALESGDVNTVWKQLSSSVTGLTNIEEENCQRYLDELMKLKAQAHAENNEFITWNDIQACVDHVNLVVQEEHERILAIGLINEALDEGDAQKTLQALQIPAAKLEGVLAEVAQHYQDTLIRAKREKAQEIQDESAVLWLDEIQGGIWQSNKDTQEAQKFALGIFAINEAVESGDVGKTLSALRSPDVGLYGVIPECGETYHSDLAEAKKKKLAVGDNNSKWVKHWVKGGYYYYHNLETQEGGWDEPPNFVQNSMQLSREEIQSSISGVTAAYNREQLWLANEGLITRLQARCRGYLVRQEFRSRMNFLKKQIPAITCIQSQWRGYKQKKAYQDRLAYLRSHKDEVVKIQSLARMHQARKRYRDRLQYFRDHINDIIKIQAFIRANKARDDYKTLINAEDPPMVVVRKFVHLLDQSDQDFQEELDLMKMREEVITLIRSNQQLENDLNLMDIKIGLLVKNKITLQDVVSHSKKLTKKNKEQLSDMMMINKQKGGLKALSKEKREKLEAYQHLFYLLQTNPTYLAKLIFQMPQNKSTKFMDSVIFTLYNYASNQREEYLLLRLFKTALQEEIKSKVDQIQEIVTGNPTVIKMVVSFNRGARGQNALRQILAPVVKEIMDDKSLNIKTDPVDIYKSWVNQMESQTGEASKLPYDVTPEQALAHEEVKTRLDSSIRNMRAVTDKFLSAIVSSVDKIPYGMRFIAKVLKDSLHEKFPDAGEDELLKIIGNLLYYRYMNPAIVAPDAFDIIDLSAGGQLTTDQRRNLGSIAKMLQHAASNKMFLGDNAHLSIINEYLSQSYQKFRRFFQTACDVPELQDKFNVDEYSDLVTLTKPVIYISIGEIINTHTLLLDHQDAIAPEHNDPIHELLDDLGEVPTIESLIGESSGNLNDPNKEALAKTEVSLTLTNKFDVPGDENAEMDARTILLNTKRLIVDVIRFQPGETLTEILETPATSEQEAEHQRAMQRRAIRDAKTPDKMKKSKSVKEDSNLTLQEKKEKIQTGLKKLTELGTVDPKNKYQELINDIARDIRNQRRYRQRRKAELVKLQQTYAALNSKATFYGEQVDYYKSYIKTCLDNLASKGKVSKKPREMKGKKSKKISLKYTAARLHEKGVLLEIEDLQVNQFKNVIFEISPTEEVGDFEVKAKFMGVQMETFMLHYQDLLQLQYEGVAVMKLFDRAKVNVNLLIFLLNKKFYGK
UniProt Q8IVH8: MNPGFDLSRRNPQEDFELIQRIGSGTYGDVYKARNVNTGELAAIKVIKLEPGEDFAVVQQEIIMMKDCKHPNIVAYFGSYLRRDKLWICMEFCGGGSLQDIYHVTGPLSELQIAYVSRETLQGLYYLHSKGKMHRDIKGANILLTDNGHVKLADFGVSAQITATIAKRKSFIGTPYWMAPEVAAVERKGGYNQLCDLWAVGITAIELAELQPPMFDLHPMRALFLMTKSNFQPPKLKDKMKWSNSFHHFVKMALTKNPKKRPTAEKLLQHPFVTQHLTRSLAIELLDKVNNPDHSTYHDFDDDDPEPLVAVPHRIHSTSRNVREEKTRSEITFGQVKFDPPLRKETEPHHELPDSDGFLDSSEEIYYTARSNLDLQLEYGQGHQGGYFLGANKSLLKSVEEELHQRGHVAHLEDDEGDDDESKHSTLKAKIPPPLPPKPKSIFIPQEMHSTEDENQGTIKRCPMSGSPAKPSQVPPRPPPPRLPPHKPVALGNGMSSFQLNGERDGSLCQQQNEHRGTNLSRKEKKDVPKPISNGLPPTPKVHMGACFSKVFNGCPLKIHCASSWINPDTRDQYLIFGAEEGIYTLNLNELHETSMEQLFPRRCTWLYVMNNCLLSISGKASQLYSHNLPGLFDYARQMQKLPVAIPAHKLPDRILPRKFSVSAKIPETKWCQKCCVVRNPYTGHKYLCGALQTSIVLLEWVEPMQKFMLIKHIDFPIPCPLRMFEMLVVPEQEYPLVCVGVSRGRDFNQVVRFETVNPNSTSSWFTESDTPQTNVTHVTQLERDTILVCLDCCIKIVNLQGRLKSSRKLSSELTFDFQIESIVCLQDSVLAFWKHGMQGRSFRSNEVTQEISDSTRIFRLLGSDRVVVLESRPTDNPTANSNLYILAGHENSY
Flag-tagged GLK (Q8IVH8, form named): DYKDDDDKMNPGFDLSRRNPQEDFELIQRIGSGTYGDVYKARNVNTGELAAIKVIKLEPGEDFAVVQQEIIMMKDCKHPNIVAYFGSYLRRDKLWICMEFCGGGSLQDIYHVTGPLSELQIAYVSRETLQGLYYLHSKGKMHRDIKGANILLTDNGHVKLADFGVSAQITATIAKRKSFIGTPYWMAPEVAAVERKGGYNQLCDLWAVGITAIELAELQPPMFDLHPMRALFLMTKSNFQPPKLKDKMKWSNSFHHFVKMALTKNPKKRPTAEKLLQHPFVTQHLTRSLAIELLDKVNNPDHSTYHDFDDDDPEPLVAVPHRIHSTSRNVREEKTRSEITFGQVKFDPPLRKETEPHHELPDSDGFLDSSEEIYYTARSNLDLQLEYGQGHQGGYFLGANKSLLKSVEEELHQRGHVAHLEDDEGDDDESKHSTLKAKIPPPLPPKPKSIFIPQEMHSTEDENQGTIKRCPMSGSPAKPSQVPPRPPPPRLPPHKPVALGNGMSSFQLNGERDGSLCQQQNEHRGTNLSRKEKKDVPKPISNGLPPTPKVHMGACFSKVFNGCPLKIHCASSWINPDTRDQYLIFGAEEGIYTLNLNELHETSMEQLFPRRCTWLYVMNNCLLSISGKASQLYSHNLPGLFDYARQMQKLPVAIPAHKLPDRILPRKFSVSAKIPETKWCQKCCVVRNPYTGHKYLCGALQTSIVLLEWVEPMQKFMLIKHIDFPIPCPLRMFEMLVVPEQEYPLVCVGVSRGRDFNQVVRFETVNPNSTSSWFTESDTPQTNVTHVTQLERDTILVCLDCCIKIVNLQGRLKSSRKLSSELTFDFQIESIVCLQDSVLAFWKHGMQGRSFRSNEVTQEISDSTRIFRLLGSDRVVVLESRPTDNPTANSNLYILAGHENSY
UniProt Q02111: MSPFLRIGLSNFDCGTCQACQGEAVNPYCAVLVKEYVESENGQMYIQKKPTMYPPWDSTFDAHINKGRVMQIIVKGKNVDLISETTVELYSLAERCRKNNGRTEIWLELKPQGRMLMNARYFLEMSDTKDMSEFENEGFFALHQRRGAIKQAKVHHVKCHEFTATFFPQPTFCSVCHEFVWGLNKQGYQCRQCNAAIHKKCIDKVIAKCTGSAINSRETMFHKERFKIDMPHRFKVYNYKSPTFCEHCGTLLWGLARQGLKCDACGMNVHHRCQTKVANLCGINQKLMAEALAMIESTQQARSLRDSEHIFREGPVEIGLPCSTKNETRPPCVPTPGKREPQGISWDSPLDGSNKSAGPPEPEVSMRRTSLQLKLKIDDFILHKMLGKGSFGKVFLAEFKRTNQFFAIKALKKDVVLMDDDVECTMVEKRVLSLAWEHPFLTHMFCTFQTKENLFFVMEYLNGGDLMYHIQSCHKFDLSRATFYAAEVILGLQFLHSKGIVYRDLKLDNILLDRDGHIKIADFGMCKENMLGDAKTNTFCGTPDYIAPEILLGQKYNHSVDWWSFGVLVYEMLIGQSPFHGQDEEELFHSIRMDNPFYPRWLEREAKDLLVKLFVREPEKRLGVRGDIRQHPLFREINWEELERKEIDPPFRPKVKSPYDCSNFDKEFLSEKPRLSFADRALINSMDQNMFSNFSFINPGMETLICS

Columns and labels:
[1] = biological target: Aryl hydrocarbon receptor (AhR), endogenous, murine T cells (mouse) (UniProt P30561); assay: co-IP and PLA, murine primary T cells stimulated with anti-CD3 (FIG. 6B)
[2] = biological target: RORγt, endogenous, murine T cells (mouse) (UniProt P51450); assay: legend of FIG. 6; co-IP and PLA in murine primary T cells
[3] = biological target: RORγt, endogenous, murine T cells (mouse) (UniProt P51450); assay: in situ PLA, T cells of Lck-GLK;PKCθ-/- mice (FIG. 4E)
[4] = biological target: RORγt, endogenous, murine T cells (mouse) (UniProt P51450); assay: co-IP of endogenous proteins, lysates of primary splenic T cells (FIG. 4B)
[5] = biological target: RORγt, endogenous, murine T cells (mouse) (UniProt P51450); assay: in situ PLA, peripheral blood T cells (FIG. 4E)
[6] = biological target: YFP-tagged IQGAP1 fusion protein (Homo sapiens (Human)) (UniProt P46940); assay: FRET, HEK293T transfectants (FIG. 18H)
[7] = biological target: Myc-tagged IQGAP1 (wild type) (Homo sapiens (Human)) (UniProt P46940); assay: co-IP of purified Flag-GLK and Myc-IQGAP1 eluted with Flag and Myc peptides (FIG. 18I)
[8] = biological target: Myc-tagged IQGAP1 (wild type) (Homo sapiens (Human)) (UniProt P46940); assay: in situ PLA with probes for Flag and Myc, HEK293T transfectants (FIGS. 18F-G)
[9] = biological target: GFP-GLK fusion protein (UniProt Q8IVH8); assay: co-IP, HEK293T cells co-transfected with Flag-GLK and GFP-GLK; blocked by the small molecule verteporfin (FIG. 16C)
[10] = biological target: Myc-tagged IQGAP1 (wild type) (Homo sapiens (Human)) (UniProt P46940); assay: legend of FIG. 18; co-IP, PLA, FRET, purified proteins
[11] = biological target: Myc-tagged IQGAP1 (wild type) (Homo sapiens (Human)) (UniProt P46940); assay: reciprocal co-IP (anti-Flag, anti-Myc), HEK293T cells transfected with Flag-GLK and Myc-IQGAP1 (FIGS. 18C-D)
[12] = biological target: Aryl hydrocarbon receptor (AhR), endogenous, murine T cells (mouse) (UniProt P30561); assay: in situ PLA with probes for PKCθ and AhR, peripheral blood T cells (FIG. 3G)
[13] = biological target: Aryl hydrocarbon receptor (AhR), endogenous, murine T cells (mouse) (UniProt P30561); assay: co-IP of endogenous proteins, lysates of primary splenic T cells (FIG. 3F)

binding [1]: binds
Substance: RORγt, endogenous, murine T cells (from UniProt P51450 1-495) (receptor)

binding [6]: binds
Substance: CFP-tagged GLK fusion protein (from UniProt Q8IVH8 1-894) (enzyme)

binding [12]: binds | binding [13]: binds
Substance: PKCθ, endogenous, murine T cells (from UniProt Q02111 1-707) (enzyme)

More lines, now with the values behind:

Substance: Aryl hydrocarbon receptor (AhR), endogenous, murine T cells (from UniProt P30561 10-848)
binding [2]: binds | binding [3]: binds | binding [4]: binds | binding [5]: binds

Substance: Flag-tagged GLK (from UniProt Q8IVH8 1-894) (enzyme)
binding [7]: binds | binding [8]: binds | binding [9]: binds | binding [10]: binds | binding [11]: binds
